Earlier results on two compounds are cited in article PMC10049495, “Antitumor Activity of PEGylated and TEGylated Phenothiazine Derivatives: Structure–Activity Relationship” (International Journal of Molecular Sciences, 2023).

Read-outs that look alike come from different tables or passages of the source.

One data set has as its system U87-MG. The following applies: cited from earlier work.
The test system of the next data set is HepG2. Particulars: HepG2 (merged cell assumed); cited from earlier work.

`CN1CCN(CCCN2c3ccccc3Sc3ccc(Cl)cc32)CC1` [Prochlorperazine]: the IC50 in the data set on U87-MG (cell line not clear from layout (U87-MG assumed)) was 0.97 µM.

`CSc1ccc2c(c1)N(CCC1CCCCN1C)c1ccccc1S2` (stereo not drawn) [Thioridazine]: the values for the IC50 in the data set on HepG2 and in the data set on U87-MG (U87-MG) were 45.5 µM and 12.4 µM, respectively.

As a reminder, the IC50 is the concentration that inhibits the measured activity by half.
